At least one peptide structure holds a part that was inferred or is arguable (an end, a ring closure or a residue). For part of these data: At least one compound was matched to its structure with a doubt left.
Columns and labels:
[1] = tested on: obese diabetic (ob/ob) mice; assay: Voluntary food intake in fasted obese diabetic (ob/ob) mice after i.p. injection; type: in vivo, mouse; settings: 100 nmol/kg i.p., FIG. 4, up to 300 min
Experimental: (§1) Mice which had been previously habituated to feeding for 3 h/day were administered a single i.p. injection of saline (0.9% w/v NaCl, 10 ml/kg) in the fasted state (10.00 h) and food was immediately returned following injection. Two days after the saline injection, mice were randomly allocated into groups of 7-8 animals which were administered a single i.p. injection (from 1 to 100 nmol/kg) of either CCK-8, structurally modified CCK-8 analogues and/or other peptide hormones (including, bombesin, leptin and islet amyloid polypeptide (IAPP)). Food intake was carefully monitored at 30 min intervals up to 180 min post injection. In one series of experiments, the ability of CCK-8 and Asp^1-glucitol CCK-8 to inhibit feeding activity was studied in overnight fasted adult obese hyperglycaemic (ob/ob) mice. All animal studies were done in accordance with the Animals (Scientific Procedures) Act 1986.
FIG. 4 Effect of CCK-8, Asp^1-glucitol CCK-8 or saline on voluntary food intake in obese diabetic (ob/ob) mice. Saline or test agents were administered by i.p. injection (100 nmol/kg) to fasted obese diabetic (ob/ob) mice at time 0 immediately before introduction of food. Cumulative food intake was monitored at 30, 60, 90, 120, 150, 180, 210, 240, 270 and 300 min post injection. Values are means±SE of 8 observations. […]

[2] = tested on: Swiss TO mice; assay: Voluntary food intake in fasted Swiss TO mice after i.p. injection; type: in vivo, mouse
Experimental: Effects of CCK-8, Asp^1glucitol CCK-8, pGlu-Gln CCK-8 and other peptides on food intake in mice. Studies to evaluate the relative potencies of control CCK-8, Asp^1-glucitol CCK-8, pGlu-Gln CCK-8 and other peptides involved in regulation of feeding were performed using male Swiss TO mice (n=16) aged 7-12 weeks from a colony originating from the Behavioral and Biomedical Research Unit, University of Ulster. The animals were housed individually in an air-conditioned room at 22±2° C. with 12 h light/12 h dark cycle. Drinking water was supplied ad libitum and standard mouse maintenance diet (Trouw Nutrition, Cheshire, UK) was provided for various times as indicated below. The mice were habituated to a daily feeding period of 3 h/day by progressively reducing the feeding period over a 3 week period. On days 1-6, food was supplied from 10.00 to 20.00 h, days 7-14 from 10.00 to 16.00 h and days 15-21 food was restricted to 10.00 to 13.00 h. Body weight, food and water intake were monitored daily.
as §1
Statistical analysis. Groups of data are presented as means±SE. Statistical evaluation was performed using analysis of variance, least significant difference multiple comparisons test and Student's unpaired t-test as appropriate. Differences were considered to be significant if P<0.05.

SMILES	effect on voluntary food intake [1]	potency in inhibiting food intake on equimolar basis versus leptin, IAPP or bombesin ([2]; 100 nmol/kg i.p., 30-180 min, FIGS. 8-10)	effect on voluntary food intake compared to saline ([2]; 100 nmol/kg i.p., FIG. 3)	sustained inhibition of cumulative food intake over 3 h compared to saline ([2]; 100 nmol/kg i.p., FIG. 3, up to 180 min)	duration of action on food intake ([2]; normal animals)	anorectic effect ([2]; 100 nmol/kg i.p., FIG. 10)
CSCC[C@H](NC(=O)[C@H](Cc1ccc(OS(=O)(=O)O)cc1)NC(=O)[C@@H](N)CC(=O)O)C(=O)NCC(=O)N[C@@H](Cc1c[nH]c2ccccc12)C(=O)N[C@@H](CCSC)C(=O)N[C@@H](CC(=O)O)C(=O)N[C@@H](Cc1ccccc1)C(N)=O [CCK-8, Asp^1Tyr^2(SO3H)-Met^3Gly^4Trp^5Met^6Asp^7Phe^8amide]	significantly reduce voluntary food intake	considerably more potent	inhibitory effect on voluntary food intake at 30, 60 and 90 min post treatment	no sustained inhibitory action	90 min	–
CSCC[C@H](NC(=O)[C@H](CC(C)C)NC(=O)[C@H](Cc1cnc[nH]1)NC(=O)CNC(=O)[C@@H](NC(=O)[C@H](C)NC(=O)[C@H](Cc1c[nH]c2ccccc12)NC(=O)[C@H](CCC(N)=O)NC(=O)[C@H](CC(N)=O)NC(=O)CNC(=O)[C@H](CC(C)C)NC(=O)[C@H](CCCN=C(N)N)NC(=O)[C@H](CCC(N)=O)NC(=O)[C@@H]1CCC(=O)N1)C(C)C)C(N)=O [bombesin]	–	–	–	–	–	effective anorectic agents
